{
  "source": "patent US11578125B2",
  "about": "“Anti-thyroid hormone (T4) recombinant antibody or antigen binding fragment” (Teknologian tutkimuskeskus VTT Oy, priority 2018, dated 2023)",
  "system": "anti-T4 Fab",
  "assay": "competitive ELISA, T4-BSA coated wells, 0.25 nM anti-T4 Fab pre-incubated with analyte",
  "assay_type": "binding, mouse",
  "conditions": "for sensitivity of the competitive ELISA assay compared with L-thyroxine: LOD and LOQ",
  "procedure": "Microtiter plate wells (Nunc, 436023) were coated with 100 μl of 4 μg/ml T4-BSA (Fitzgerald, 80-IT50) in PBS (15 mM phosphate, 150 mM NaCl, pH 7.3) for one hour at +37° C. with 600 rpm shaking. Wells were then washed three times with 300 μl PBS supplemented with 0.05% (v/v) Tween20 (Sigma-Aldrich, 93773-250G). Wells were blocked with 200 μl of Superblock® (Thermo Fisher Scientific, 37516) for 30 minutes in room temperature with 600 rpm shaking and washed as above. 100 μl of pre-incubated mixtures, containing 0.25 nM anti-T4 Fab and varying concentrations of L-thyroxine (T4) (Sigma-Aldrich, T2376) in PBSP (GE Healthcare, 28-9950-84) supplemented with 1% DMSO (v/v) (Sigma-Aldrich, D5879-100ML), were transferred to wells and incubated for 30 minutes with 600 rpm shaking in room temperature. Each sample had 12 replicates. Wells were washed as above and 100 μl of Goat anti-mouse Kappa-HRP (SoutherBiotech, 1050-05) diluted 1:1000 in Superblock was transferred to wells and incubation was carried out for 30 minutes at 600 rpm shaking in room temperature. Wells were washed as above and 100 μl of TMB Microwell Peroxidase Substrate System (2-C) (SeraCare, 50-76-00) was transferred to wells and enzymatic reaction was carried out for 30 minutes with 600 rpm shaking in room temperature. Reactions were stopped by transferring 100 μl of 1 M H3PO4 to the wells and measured at A450 using Varioskan (Thermo Fisher Scientific). Data was analysed with OriginPro 2017-software.\nAssay was performed as in the previous paragraph (under title L-Thyroxine) except instead of T4 (Thyroxine) TIBPA (Tetraiodobisphenol A) was used.\nAssay was performed as in the paragraph under title L-Thyroxine except instead of T4 (Thyroxine) TBBPA (Tetrabromobisphenol A) was used.\nAssay was performed as in the paragraph under title L-Thyroxine except instead of T4 (Thyroxine) TCBPA (Tetrachlorobisphenol A) was used.\nAssay was performed as in the paragraph under title L-Thyroxine except instead of T4 (Thyroxine) BPA (Bisphenol A) was used.",
  "data": [
    {"smiles": "CC(C)(c1cc(Cl)c(O)c(Cl)c1)c1cc(Cl)c(O)c(Cl)c1", "note": "[TCBPA, Tetrachlorobisphenol A]", "values": [
      {"measurement": "sensitivity of the competitive ELISA assay compared with L-thyroxine", "result": "three orders of magnitude less"}
    ]},
    {"smiles": "N[C@@H](Cc1cc(I)c(Oc2cc(I)c(O)c(I)c2)c(I)c1)C(=O)O", "note": "[Compound T4, 3,5,3′,5′-tetraiodothyronine]", "values": [
      {"measurement": "Limit of detection (LOD)", "setting": "FIG. 5", "result": 84, "unit": "pM"},
      {"measurement": "Limit of quantification (LOQ)", "setting": "FIG. 5", "result": 314, "unit": "pM"}
    ]},
    {"smiles": "CC(C)(c1cc(Br)c(O)c(Br)c1)c1cc(Br)c(O)c(Br)c1", "note": "[TBBPA, Tetrabromobisphenol A]", "values": [
      {"measurement": "sensitivity of the competitive ELISA assay compared with L-thyroxine", "result": "more than two orders of magnitude less"}
    ]},
    {"smiles": "CC(C)(c1cc(I)c(O)c(I)c1)c1cc(I)c(O)c(I)c1", "note": "[TIBPA, Tetraiodobisphenol A]", "values": [
      {"measurement": "sensitivity of the competitive ELISA assay compared with L-thyroxine", "result": "two orders of magnitude less"}
    ]}
  ]
}
